Assay results taken from PubChem BioAssay (NCATS).
Inconclusive results, whose numbers are uncertain, are shown with a selection of clear calls. Potencies beside an inconclusive call are fits to weak or partial responses and may not hold up. Calls of active or inactive are those of the source. Calls follow the shape of the dose curve; as a rule, active = well fitted cell-killing curve with a large enough effect; inconclusive = small, poorly fitted or top-dose-only effect, or effect the other way; inactive = no such curve, though single readings can be large or run the other way.

Columns and labels:
[1] = Quantitative High-Throughput drug screen in 47 multiple myeloma cell lines against the NCATS MIPE library collection: KMM1_JCRB cell viability assay (AID 1918960); conditions: KMM1 myeloma viability, CellTiter-Glo ATP luminescence, 48 h; viability (% of DMSO): at 45.8 µM (top of the series); also: nearly all actives have a fitted effect of over 30% in size
Outline: (§1)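 Each line was plated at 500 cells/well and treated 48 h with library drugs. Viability came from CellTiter-Glo luminescence relative to DMSO and cell-free medium controls.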

[2] = Quantitative High-Throughput drug screen in 47 multiple myeloma cell lines against the NCATS MIPE library collection: Karpas417_ECACC cell viability assay (AID 1918961); conditions: Karpas417 myeloma viability, CellTiter-Glo ATP luminescence, 48 h; viability (% of DMSO): at 45.8 µM (top of the series) unless noted
Outline: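 Inhibition of cell viability is measured here. Each line was plated at 500 cells per well, treated with MIPE 4.0 drugs, kept 48 hours at 37C, then assayed for ATP content by CellTiter-Glo luminescence.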

[3] = Quantitative High-Throughput drug screen in 47 multiple myeloma cell lines against the NCATS MIPE library collection: KHM11_PLB cell viability assay (AID 1918962); conditions: KHM11 myeloma cell viability, CellTiter-Glo ATP luminescence, 48 h; series mostly up to 45.8 µM; also: nearly all actives have a fitted effect of over 35% in size
Outline: (§2)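 Approved and investigational drugs from MIPE 4.0 were added by pin tool to 500 cells per well. After 48 hours at 37C, ATP-based CellTiter-Glo luminescence indicated remaining viability.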

[4] = Quantitative High-Throughput drug screen in 47 multiple myeloma cell lines against the NCATS MIPE library collection: AMO1_DSMZ cell viability assay (AID 1918927; also: nearly all actives have a fitted effect of over 30% in size)
Outline: as §2

[5] = Quantitative High-Throughput drug screen in 47 multiple myeloma cell lines against the NCATS MIPE library collection: ARP1_JJKsccF8 cell viability assay (AID 1918928; also: nearly all actives have a fitted effect of over 40% in size); conditions: ARP1 myeloma cells viability, CellTiter-Glo ATP, 48 h; viability: at 45.8 µM (top of the series)
Outline: as §1

[6] = Quantitative High-Throughput drug screen in 47 multiple myeloma cell lines against the NCATS MIPE library collection: ARD_JJKsccE7 cell viability assay (AID 1918929)
Outline: as §2

[7] = Quantitative High-Throughput drug screen in 47 multiple myeloma cell lines against the NCATS MIPE library collection: Karpas620_DSMZ cell viability assay (AID 1918959); also: nearly all actives have a fitted effect of over 30% in size
Outline: as §2

[8] = Quantitative High-Throughput drug screen in 47 multiple myeloma cell lines against the NCATS MIPE library collection: EJM_DSMZ cell viability assay (AID 1918926; also: nearly all actives have a fitted effect of over 30% in size); conditions: EJM myeloma cell viability, CellTiter-Glo ATP, 48 h; series mostly up to 45.8 µM
Outline: as §2
Potency is read from the fitted curve at half-maximal effect.

In the case of `N#CNC(=NCCCCCCOc1ccc(Cl)cc1)Nc1ccncc1`, the Potency [1] is reported as active: 0.0059 µM, the Potency [2] is reported as inconclusive: 1.32 µM [cytotoxic, partial curve, poor fit] and the Potency [3] is reported as inconclusive: 11.8 µM [cytotoxic, partial curve, poor fit].
With `CCCc1cc(=O)[nH]c(=S)[nH]1` the Potency [4] was “inactive”, the Potency [5] was “inactive” and the Potency [6] was “inactive”. For the same compound, the Potency [7] was inconclusive: 20.9 µM [rising, partial curve, poor fit], the Potency [1] was “inactive” and the Potency [2] was inconclusive: 0.0059 µM [rising, full curve, poor fit]. For the same compound, the Potency [3] was inconclusive: 0.0059 µM [rising, full curve, poor fit].
With `CC=CC(=O)N(CC)c1ccccc1C` the Potency [5] was active: 5.26 µM, the Potency [2] was inconclusive: 0.0332 µM [cytotoxic, full curve, poor fit] and the Potency [3] was “inactive”.
With `NC(=O)c1ccc(N(C(N)=O)c2c(F)cccc2F)nc1-c1ccc(F)cc1F` the Potency [8] was inconclusive: 23.5 µM [cytotoxic, single point], the Potency [4] was inconclusive: 20.9 µM [cytotoxic, single point] and the Potency [6] was inconclusive: 5.9 µM [cytotoxic, partial curve, poor fit]. The Potency [1] was “inactive” and the Potency [3] was inconclusive: 0.001 µM.
In the case of `CCOC(=O)Nc1ccc(NCc2ccc(F)cc2)nc1N`, the Potency [8] is reported as “inactive”, the Potency [6] is reported as active: 18.7 µM and the Potency [2] is reported as “inactive”. For the same compound, the Potency [3] was inconclusive: 0.001 µM.
With `CC(=O)OCC(=O)[C@@]1(O)[C@H](C)C[C@H]2[C@@H]3C=C(C)C4=Cc5c(cnn5-c5ccccc5)C[C@]4(C)[C@@H]3[C@@H](O)C[C@@]21C` the Potency [4] was inconclusive: 11.8 µM [cytotoxic, single point], the Potency [6] was inconclusive: 2.64 µM [cytotoxic, partial curve, poor fit] and the Potency [7] was active: 8.33 µM. For the same compound, the Potency [1] was inconclusive: 2.96 µM [cytotoxic, partial curve], the Potency [2] was inconclusive: 5.9 µM [cytotoxic, single point] and the Potency [3] was active: 16.6 µM.
In the case of `COc1cc([C@@H]2c3cc4c(cc3[C@H](O)[C@H]3COC(=O)[C@@H]23)OCO4)cc(OC)c1OC`, the Potency [7] is reported as inconclusive: 0.059 µM [cytotoxic, full curve], the Potency [2] is reported as inconclusive: 2.96 µM [cytotoxic, partial curve, poor fit] and the Potency [3] is reported as active: 0.105 µM.
With `CNC(=O)c1cc(COc2nnc(Nc3ccc(Cl)cc3)c3ccoc23)ccn1` the Potency [8] was inconclusive: 33.2 µM [cytotoxic, single point], the Potency [5] was inconclusive: 33.2 µM [cytotoxic, single point] and the Potency [6] was inconclusive: 5.26 µM [cytotoxic, partial curve, poor fit]. The Potency [1] was active: 9.35 µM, the Potency [2] was inconclusive: 11.8 µM [cytotoxic, single point] and the Potency [3] was inconclusive: 0.118 µM [rising, full curve, poor fit].
In the case of `Nc1nnc(-c2cccc(Cl)c2Cl)c(N)n1`, the Potency [8] is reported as “inactive”, the Potency [4] is reported as inconclusive: 23.5 µM [cytotoxic, single point] and the Potency [6] is reported as inconclusive: 0.001 µM [cytotoxic]. For the same compound, the Potency [1] was inconclusive: 37.2 µM [cytotoxic, single point], the Potency [2] was inconclusive: 0.0015 µM [cytotoxic, full curve, poor fit] and the Potency [3] was inconclusive: 29.6 µM [cytotoxic, single point].
For `CN(C)CCOC(c1ccccc1)c1ccccc1`, the Potency [6] was inconclusive: 6.62 µM [rising, partial curve, poor fit], the Potency [2] was inconclusive: 0.0332 µM [cytotoxic, full curve, poor fit] and the Potency [3] was inconclusive: 37.2 µM [cytotoxic, single point].
In the case of `Cc1noc(NS(=O)(=O)c2ccc(N)cc2)c1C`, the Potency [4] is reported as “inactive”, the Potency [6] is reported as “inactive” and the Potency [7] is reported as “inactive”. For the same compound, the Potency [2] was “inactive” and the Potency [3] was inconclusive: 0.001 µM [cytotoxic].
For `Oc1ccc(-c2ccc(-c3cc(Nc4cccc(CNC5CC5)c4)n[nH]3)cc2)c(O)c1`, the Potency [5] was active: 4.18 µM, the Potency [2] was active: 0.833 µM and the Potency [3] was active: 0.743 µM.
With `NC(=O)c1cnc(-c2ccc(C3(N)CCC3)cc2)c(-c2ccccc2)c1` the Potency [4] was inconclusive: 26.4 µM [cytotoxic, partial curve, poor fit], the Potency [6] was inconclusive: 1.18 µM [cytotoxic, full curve] and the Potency [7] was inconclusive: 16.6 µM [cytotoxic, partial curve]. The Potency [1] was inconclusive: 8.33 µM [cytotoxic, partial curve] and the Potency [2] was inconclusive: 5.9 µM [cytotoxic, full curve, poor fit].
With `Clc1cc(Cl)cc(CNc2ncncc2-c2ccc3c(c2)OCO3)c1` the Potency [8] was inconclusive: 26.4 µM [cytotoxic, single point], the Potency [6] was active: 16.6 µM and the Potency [1] was inconclusive: 10.5 µM [cytotoxic, full curve]. The Potency [2] was inconclusive: 37.2 µM [cytotoxic, partial curve, poor fit] and the Potency [3] was inconclusive: 10.5 µM [cytotoxic, partial curve, poor fit].
In the case of `Nc1cc(C(Cl)=C(Cl)Cl)c(S(N)(=O)=O)cc1S(N)(=O)=O`, the Potency [4] is reported as “inactive”, the Potency [5] is reported as “inactive” and the Potency [6] is reported as “inactive”. For the same compound, the Potency [1] was “inactive”, the Potency [2] was “inactive” and the Potency [3] was “inactive”.
With `Cc1c(O)cccc1C(=O)N[C@@H](CSc1ccccc1)[C@H](O)CN1C[C@H]2CCCC[C@@H]2C[C@@H]1C(=O)NC(C)(C)C` the Potency [5] was active: 23.5 µM, the Potency [1] was active: 18.7 µM and the Potency [2] was active: 14.8 µM. For the same compound, the Potency [3] was active: 18.7 µM.
With `CC(=O)OCC(=O)[C@@]12N=C(C)O[C@H]1C[C@H]1[C@@H]3CCC4=CC(=O)C=C[C@]4(C)[C@@H]3[C@@H](O)C[C@@]12C` the Potency [8] was “inactive”, the Potency [4] was inconclusive: 18.7 µM [cytotoxic, single point] and the Potency [6] was active: 1.05 µM. The Potency [2] was inconclusive: 13.2 µM [cytotoxic, partial curve, poor fit].
In the case of `O=C1c2ccccc2-c2n[nH]c3cccc1c23`, the Potency [5] is reported as inconclusive: 20.9 µM [cytotoxic, single point], the Potency [1] is reported as inconclusive: 18.7 µM [cytotoxic, partial curve] and the Potency [2] is reported as inconclusive: 37.2 µM [cytotoxic, single point]. The Potency [3] was inconclusive: 29.6 µM [cytotoxic, single point].
With `N[C@@H](CC(=O)N1CCn2c(nnc2C(F)(F)F)C1)Cc1cc(F)c(F)cc1F` the Potency [4] was “inactive”, the Potency [5] was “inactive” and the Potency [6] was “inactive”. For the same compound, the Potency [2] was inconclusive: 11.8 µM [cytotoxic, single point] and the Potency [3] was “inactive”.
With `O=C(O)CSCC(=O)NC1CCSC1=O` (stereo unspecified) the Potency [4] was inconclusive: 3.32 µM [cytotoxic, partial curve, poor fit], the Potency [6] was “inactive” and the Potency [7] was “inactive”. For the same compound, the Potency [1] was inconclusive: 0.0017 µM [rising, full curve], the Potency [2] was inconclusive: 0.0019 µM [cytotoxic, full curve, poor fit] and the Potency [3] was “inactive”.
With `O=C(C1CCCCC1)N1CC(=O)N2CCc3ccccc3C2C1` (stereo unspecified) the Potency [5] was “inactive”, the Potency [1] was “inactive” and the Potency [2] was inconclusive: 13.2 µM [cytotoxic, partial curve, poor fit]. For the same compound, the Potency [3] was “inactive”.
For `CNC[C@H](O)c1cccc(O)c1`, the Potency [4] was “inactive”, the Potency [5] was “inactive” and the Potency [6] was “inactive”. The Potency [7] was inconclusive: 0.187 µM [rising, full curve, poor fit] and the Potency [3] was inconclusive: 18.7 µM [rising, partial curve].
In the case of `Cc1onc(-c2ccccc2)c1C(=O)N[C@@H]1C(=O)N2[C@@H](C(=O)O)C(C)(C)S[C@@H]12`, the Potency [5] is reported as inconclusive: 33.2 µM [cytotoxic, single point], the Potency [1] is reported as “inactive” and the Potency [2] is reported as inconclusive: 0.0026 µM [cytotoxic, full curve, poor fit].
For `Cc1cn2c(-c3cn[nH]c3)cnc2c(Nc2ccc(C(=O)N3CCNCC3)cc2F)n1`, the Potency [8] was active: 18.7 µM, the Potency [7] was inconclusive: 11.8 µM [cytotoxic, full curve] and the Potency [1] was inconclusive: 5.26 µM [cytotoxic, partial curve, poor fit]. The Potency [2] was inconclusive: 5.9 µM [cytotoxic, partial curve, poor fit] and the Potency [3] was active: 16.6 µM.
In the case of `C[C@@H](CN1CC(=O)NC(=O)C1)N1CC(=O)NC(=O)C1`, the Potency [4] is reported as inconclusive: 11.8 µM [cytotoxic, partial curve], the Potency [5] is reported as inconclusive: 0.0019 µM [cytotoxic, full curve, poor fit] and the Potency [6] is reported as inconclusive: 9.35 µM [cytotoxic, partial curve, poor fit]. The Potency [7] was inconclusive: 2.64 µM [cytotoxic, full curve], the Potency [1] was “inactive” and the Potency [2] was active: 0.0526 µM. For the same compound, the Potency [3] was inconclusive: 0.0013 µM [rising, full curve, poor fit].
With `CCN(CC)CCOc1ccc(C(=C(Cl)c2ccccc2)c2ccccc2)cc1` the Potency [8] was inconclusive: 37.2 µM [cytotoxic, single point], the Potency [5] was “inactive” and the Potency [6] was inconclusive: 37.2 µM [cytotoxic, single point]. For the same compound, the Potency [7] was inconclusive: 33.2 µM [cytotoxic, single point] and the Potency [2] was inconclusive: 8.33 µM [cytotoxic, full curve, poor fit].
With `CO[C@H]1C=CO[C@@]2(C)Oc3c(C)c(O)c4c(O)c(c(C=NN5CCN(C)CC5)c(O)c4c3C2=O)NC(=O)C(C)=CC=C[C@H](C)[C@H](O)[C@@H](C)[C@@H](O)[C@@H](C)[C@H](OC(C)=O)[C@H]1C` the Potency [8] was inconclusive: 0.0475 µM [cytotoxic, full curve, poor fit], the Potency [5] was inconclusive: 0.0085 µM [cytotoxic, full curve, poor fit] and the Potency [6] was “inactive”. For the same compound, the Potency [1] was “inactive”, the Potency [2] was inconclusive: 2.38 µM [rising, full curve, poor fit] and the Potency [3] was inconclusive: 0.948 µM [cytotoxic, partial curve, poor fit].
For `Cc1nc(Nc2n[nH]c3c2CN(C(=O)N[C@H](CN(C)C)c2ccccc2)C3(C)C)c2sccc2n1`, the Potency [8] was active: 1.48 µM, the Potency [6] was inconclusive: 2.96 µM [cytotoxic, full curve, poor fit] and the Potency [3] was active: 0.0132 µM.
